Source: publication doi:10.1101/2020.11.11.377994
No constants are given. Whether binding was seen depends on the method and setting.

Molecular target: putative dephospho-CoA kinase from Aquifex aeolicus, wild type (DPCK-WT) (Aquifex aeolicus) (UniProt O67792)
Test: SEC

binding: no binding
B1: putative dephospho-CoA kinase from Aquifex aeolicus, wild type (DPCK-WT) (enzyme, UniProt O67792 1-196)
chain: MKRIGLTGNIGCGKSTVAQMFRELGAYVLDADKLIHSFYRKGHPVYEEVVKTFGKGILDEEGNIDRKKLADIVFKDEEKLRKLEEITHRALYKEIEKITKNLSEDTLFILEASLLVEKGTYKNYDKLIVVYAPYEVCKERAIKRGMSEEDFERRWKKQMPIEEKVKYADYVIDNSGSIEETYKQVKKVYEELTRDP
